# Experiment: Expert sensory testing of racemic menthol versus (−)-menthol in a toothpaste formulation (CREST Cavity) with a standard spearmint flavor
# Type: in vivo
# Description: In separate, unpublished internal experiments, perceptual experiences of racemic menthol are quantified via expert sensory testing. The use of a standard spearmint flavor (minimizing extra menthol contribution) compared racemic menthol to (−)-menthol in a toothpaste formulation (CREST Cavity). There are several sensory observations taken from these experiments. […] These aromatic notes appear during brushing and disappear after 5-10 minutes post expectoration and are more pronounced as concentrations increase.
# [1] = toothpaste (CREST Cavity), standard spearmint flavor
Compound,"Time after which the aromatic notes disappear post expectoration (greater than 5,000 part per million) [min]","Aromatic character at higher concentration (greater than 5,000 part per million, notes appear during brushing)","Differences versus (−)-menthol in peppery burn, cooling vapors, thermal diffusion and cold [1]","Perception at equivalent concentration, compared with racemic menthol [1]"
"CC1CCC(C(C)C)C(O)C1 (racemic) [Racemic Menthol, racemic menthol]",5 to 10,"pencil lead, burnt rubber, shoe rubber/leather and motor oil",no meaningful differences,–
"CC1CCC(C(C)C)C(O)C1 (single isomer, unassigned; (-)) [(−)-Menthol, (−)-menthol]",–,–,–,"colder, more minty, less bitter, less drying and delivers a high overall clean mouth sensation"

# Source: patent US20210337847A1, “Mint Flavor Compositions” (The Procter & Gamble Company, priority 2020, published 2021)
